Laboratory results as given in US20060217305A1, “Induction of tumor cell senescence by retinoid receptor agonists and antagonists” (Ordway Research Institute, Inc., priority 2005, published 2006).
Further values from the same series stand in other lists.

System: MCF-7 cells, human transcripts
Assay: Affymetrix U133 2.0 Plus microarray analysis of gene expression
Assay type: cell-based
Conditions: LGD1550 100 nM, 24, 48 or 72 hrs
Protocol: FIG. 4 depicts microarray analysis of changes in gene expression in MCF-7 cells treated with RAR agonist LGD1550 or RAR antagonist LG100815, plotted using GeneSpring software. The X axis represents different time points of treatment with RAR ligands (0 point correspond to cells cultured for 3 days with DMSO carrier).
To determine the effects of the RAR agonist and antagonist on the expression of essentially all the human genes, MCF-7 cells were treated with 100 nM of RAR agonist LGD1550 or 10 μM of RAR antagonist LG100815, concentrations that provide maximal induction of gene expression according to Q-PCR assays (as discussed above). Cells were treated for 24, 48 or 72 hrs, and total RNA from the untreated or treated cells was isolated using Qiagen's RNeasy Total RNA Isolation Kit. For gene expression profiling, RNA samples were provided to the microarray service facility of the Wadsworth Center Genomics Institute, which carried out biotinylated target preparation and hybridization with Affymetrix U 133 2.0 Plus oligonucleotide microarrays containing 56,000 probe sets representing 48,500 human transcripts. The hybridization signals were normalized using GCRMA procedure and analyzed using GeneSpring software (Silicone Genetics). […] The effects of the agonist and the antagonist also agreed with the results of the earlier analysis of the effects of RA on MCF-7 cells, with all 13 genes previously shown by RT-PCR to be induced in that system (Dokmanovic et al., 2002) also showing induction in the present microarray analysis (FIG. 4b).
RNA or protein products of genes that are induced to a similar level by both the RAR agonist and the RAR antagonist can be used as reporters in screening for compounds with properties similar to LG0100815. RNA or protein products of genes from this group (or promoter constructs for such genes) can be used as reporters in screening for compounds that mimic the effect of retinoids. Table 3, as shown below, lists a set of 508 genes chosen as preferred reporters. These genes were selected by being strongly (at least 2-fold) induced by both the agonist and the antagonist relative to untreated cells and showing no more than two-fold difference between their induction by the agonist and the antagonist. 62 genes listed at the top of Table 3 are particularly preferred reporters, as they are most strongly (at least 4-fold) induced by both the agonist and the antagonist. Table 4, as shown below, lists a set of 53 genes that can be used as preferred markers to discriminate between RARE-dependent and RARE-independent induction of transcription. These genes were chosen by being induced at least 3-fold by the agonist relative to untreated cells and also showing at least 4 times stronger induction by the agonist than by the antagonist. FIG. 6 plots the maximal fold induction of gene expression produced by the agonist versus that produced by the antagonist for the genes listed in Table 3 (particularly preferred reporters only) and in Table 4, with the corresponding trend lines. The relative effects of a tested compound on the genes in Table 3 and Table 4 should indicate whether the compound behaves as a RAR agonist or RAR antagonist. For example, one can select matching pairs of genes from Table 3 and Table 4 that are induced by the agonist to approximately the same degree. A compound that mimics the effects of the agonist should induce such genes to a similar level, whereas a compound that behaves like an antagonist should induce the gene from Table 3 to a much greater degree than the gene from Table 4.

In the case of `CC(/C=C/C=C(\C)c1cc(C(C)(C)C)cc(C(C)(C)C)c1)=C\C(=O)O` [LGD1550], the “AK024898 227306_at fold induction, maximal effect of agonist” value was 11.73 fold, the “AW510657 228904_at fold induction, maximal effect of agonist” value was 10.13 fold and the “BF221547 227088_at fold induction, maximal effect of agonist” value was 26.46 fold. The “CEACAM1 209498_at fold induction, maximal effect of agonist” value was 39.62 fold, the “CEACAM1 211883_x_at fold induction, maximal effect of agonist” value was 4.51 fold and the “CP 204846_at fold induction, maximal effect of agonist” value was 67.09 fold. For the same compound, the “CYP1A1 205749_at fold induction, maximal effect of agonist” value was 7.33 fold, the “CYP26B1 219825_at fold induction, maximal effect of agonist” value was 179.84 fold and the “ChGn 219049_at fold induction, maximal effect of agonist” value was 13.08 fold. The “FLJ10901 219010_at fold induction, maximal effect of agonist” value was 4.05 fold, the “FLJ11127 219694_at fold induction, maximal effect of agonist” value was 22.82 fold and the “FLJ32115 227450_at fold induction, maximal effect of agonist” value was 173.10 fold. For the same compound, the “GBP1 202269_x_at fold induction, maximal effect of agonist” value was 5.99 fold, the “GPX2 202831_at fold induction, maximal effect of agonist” value was 38.21 fold and the “HOXA13 231786_at fold induction, maximal effect of agonist” value was 4.87 fold. For the same compound, the “IFI44L 204439_at fold induction, maximal effect of agonist” value was 7.95 fold, the “IFIT4 229450_at fold induction, maximal effect of agonist” value was 16.59 fold and the “KDR 203934_at fold induction, maximal effect of agonist” value was 8.75 fold. For the same compound, the “KIAA1359 231941_s_at fold induction, maximal effect of agonist” value was 11.07 fold, the “LOC121838 232318_s_at fold induction, maximal effect of agonist” value was 28.28 fold and the “LOC129607 226702_at fold induction, maximal effect of agonist” value was 6.01 fold. For the same compound, the “LOC134548 230238_at fold induction, maximal effect of agonist” value was 5.56 fold, the “LOC145757 1558649_at fold induction, maximal effect of agonist” value was 4.71 fold and the “OAS2 228607_at fold induction, maximal effect of agonist” value was 7.28 fold. The “PCSK2 204870_s_at fold induction, maximal effect of agonist” value was 6.32 fold, the “PDE5A 206757_at fold induction, maximal effect of agonist” value was 16.48 fold and the “PDE5A 1553175_s_at fold induction, maximal effect of agonist” value was 7.55 fold. The “PDK4 225207_at fold induction, maximal effect of agonist” value was 4.76 fold, the “RSAD2 213797_at fold induction, maximal effect of agonist” value was 7.54 fold and the “SELE 206211_at fold induction, maximal effect of agonist” value was 4.54 fold. The “TGFBI 201506_at fold induction, maximal effect of agonist” value was 53.01 fold, the “TRIM31 208170_s_at fold induction, maximal effect of agonist” value was 35.70 fold and the “TRIM31 210159_s_at fold induction, maximal effect of agonist” value was 17.09 fold. For the same compound, the “HOXA1 214639_s_at fold induction, maximal effect of agonist” value (listed as agonist) was 95.33 fold.
